Data source: PubChem BioAssay AID1259254 (NCATS, 2017)
Purpose: 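Gene knock-downs that lead to re-replication, shown by excess G2 DNA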 (primary screen). Cell system: human HCT116 colorectal cancer cells. Reagents: single siRNA against human genes. Time to read-out: 3 days. Read-out: 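Imaged Hoechst DNA stain sorts each cell into a cycle phase by DNA amount; per plate, G2 fraction set to 0% for non-targeting and 100% for GMNN siRNA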. Reading the numbers: G2 robust z-score and G2 cells, % of GMNN control: higher = more G2 cells, more excess DNA replication. Rule for the call: 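An siRNA counts as active if its G2 robust z-score lies at least 5 MADs above the screen median; here such calls match roughly 38% of GMNN control or more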.
This is an unselected part of about 59,000 deposited reagents. Over the whole deposit, about 1,550 (2.6%) were called active. 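G2 share is only a proxy for re-replication; each gene was hit by three separate siRNAs, and active genes were retested.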 Entries without a mark were called inactive. The numbers tell different reagents against one gene apart. Not all columns of the deposit are shown. Reagent sequences are not shown. Not given: the amount of reagent.

For HINT3 #1, what does the deposit list?
G2 robust z-score: -0.802; G2 cells, % of GMNN control: -2.68

With HINT3 #2, what does the deposit list?
G2 robust z-score: -0.956; G2 cells, % of GMNN control: -3.76

What did the screen give for HINT3 #3?
G2 robust z-score: 0.891; G2 cells, % of GMNN control: 9.24

With SPECC1L #1, how do the results read?
G2 robust z-score: 2.69; G2 cells, % of GMNN control: 21.9

How did the screen score SPECC1L #2?
G2 robust z-score: -0.189; G2 cells, % of GMNN control: 1.64

With SPECC1L #3, what was measured?
G2 robust z-score: -0.942; G2 cells, % of GMNN control: -3.66

How did the screen score LEMD1-DT #1?
G2 robust z-score: 0.73; G2 cells, % of GMNN control: 8.1

With LEMD1-DT #2, how do the results read?
G2 robust z-score: -0.521; G2 cells, % of GMNN control: -0.695

For LEMD1-DT #3, how do the results read?
G2 robust z-score: 0.915; G2 cells, % of GMNN control: 9.41

What did the screen give for SPICE1 #1?
G2 robust z-score: 0.0107; G2 cells, % of GMNN control: 3.04

With SPICE1 #2, how do the results read?
G2 robust z-score: -0.427; G2 cells, % of GMNN control: -0.0362

For SPICE1 #3, what does the deposit list?
G2 robust z-score: -0.575; G2 cells, % of GMNN control: -1.08

Looked up above:
Entry for HINT3 #2 under “G2 cells, % of GMNN control”: -3.76
Value for SPECC1L #2 in “G2 cells, % of GMNN control”: 1.64

The results go on.
Which result is listed for CRLF2 #1?
G2 robust z-score: -0.641; G2 cells, % of GMNN control: -1.54

For CRLF2 #2, what does the deposit list?
G2 robust z-score: 0.143; G2 cells, % of GMNN control: 3.97

For CRLF2 #3, what was measured?
G2 robust z-score: 1.81; G2 cells, % of GMNN control: 15.7

Which result is listed for SLC10A4 #1?
G2 robust z-score: -0.216; G2 cells, % of GMNN control: 1.45

What did the screen give for SLC10A4 #2?
G2 robust z-score: -0.126; G2 cells, % of GMNN control: 2.08

What did the screen give for SLC10A4 #3?
G2 robust z-score: -0.574; G2 cells, % of GMNN control: -1.07
